Data taken from the supplement of paper PMC10849652.
The other results are listed elsewhere or left out.

Protein sequences, listed by entry. Tags and fused reporters are not part of them. Lines headed by an entry give the natural chain unless they say otherwise; changes in a name come on top.
UniProt Q12931: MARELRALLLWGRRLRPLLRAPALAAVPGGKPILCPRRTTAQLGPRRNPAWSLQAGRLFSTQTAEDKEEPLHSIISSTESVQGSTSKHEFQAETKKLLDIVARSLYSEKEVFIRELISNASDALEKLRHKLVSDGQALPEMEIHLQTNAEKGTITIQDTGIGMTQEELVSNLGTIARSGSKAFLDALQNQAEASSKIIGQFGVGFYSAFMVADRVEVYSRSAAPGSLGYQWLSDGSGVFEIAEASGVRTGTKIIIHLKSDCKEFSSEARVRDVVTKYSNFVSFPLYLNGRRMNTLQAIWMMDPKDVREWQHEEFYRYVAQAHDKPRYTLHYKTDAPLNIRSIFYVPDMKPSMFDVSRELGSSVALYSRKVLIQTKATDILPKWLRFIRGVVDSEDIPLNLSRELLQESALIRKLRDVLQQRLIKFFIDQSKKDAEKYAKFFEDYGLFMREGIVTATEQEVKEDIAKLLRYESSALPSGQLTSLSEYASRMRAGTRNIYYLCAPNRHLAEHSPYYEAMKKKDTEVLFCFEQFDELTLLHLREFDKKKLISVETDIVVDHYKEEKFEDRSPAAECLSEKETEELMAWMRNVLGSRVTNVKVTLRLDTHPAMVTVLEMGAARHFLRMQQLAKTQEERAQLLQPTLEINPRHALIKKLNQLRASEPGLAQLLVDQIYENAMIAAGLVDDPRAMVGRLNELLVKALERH
UniProt Q6PID6, whole entry, looked up: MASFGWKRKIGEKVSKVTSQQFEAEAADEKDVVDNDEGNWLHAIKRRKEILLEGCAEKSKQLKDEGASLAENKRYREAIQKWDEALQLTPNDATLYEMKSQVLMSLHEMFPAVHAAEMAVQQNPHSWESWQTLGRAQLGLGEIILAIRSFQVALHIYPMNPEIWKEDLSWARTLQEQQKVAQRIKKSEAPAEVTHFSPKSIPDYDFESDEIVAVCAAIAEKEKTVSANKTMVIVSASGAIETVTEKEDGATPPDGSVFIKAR
UniProt O15164: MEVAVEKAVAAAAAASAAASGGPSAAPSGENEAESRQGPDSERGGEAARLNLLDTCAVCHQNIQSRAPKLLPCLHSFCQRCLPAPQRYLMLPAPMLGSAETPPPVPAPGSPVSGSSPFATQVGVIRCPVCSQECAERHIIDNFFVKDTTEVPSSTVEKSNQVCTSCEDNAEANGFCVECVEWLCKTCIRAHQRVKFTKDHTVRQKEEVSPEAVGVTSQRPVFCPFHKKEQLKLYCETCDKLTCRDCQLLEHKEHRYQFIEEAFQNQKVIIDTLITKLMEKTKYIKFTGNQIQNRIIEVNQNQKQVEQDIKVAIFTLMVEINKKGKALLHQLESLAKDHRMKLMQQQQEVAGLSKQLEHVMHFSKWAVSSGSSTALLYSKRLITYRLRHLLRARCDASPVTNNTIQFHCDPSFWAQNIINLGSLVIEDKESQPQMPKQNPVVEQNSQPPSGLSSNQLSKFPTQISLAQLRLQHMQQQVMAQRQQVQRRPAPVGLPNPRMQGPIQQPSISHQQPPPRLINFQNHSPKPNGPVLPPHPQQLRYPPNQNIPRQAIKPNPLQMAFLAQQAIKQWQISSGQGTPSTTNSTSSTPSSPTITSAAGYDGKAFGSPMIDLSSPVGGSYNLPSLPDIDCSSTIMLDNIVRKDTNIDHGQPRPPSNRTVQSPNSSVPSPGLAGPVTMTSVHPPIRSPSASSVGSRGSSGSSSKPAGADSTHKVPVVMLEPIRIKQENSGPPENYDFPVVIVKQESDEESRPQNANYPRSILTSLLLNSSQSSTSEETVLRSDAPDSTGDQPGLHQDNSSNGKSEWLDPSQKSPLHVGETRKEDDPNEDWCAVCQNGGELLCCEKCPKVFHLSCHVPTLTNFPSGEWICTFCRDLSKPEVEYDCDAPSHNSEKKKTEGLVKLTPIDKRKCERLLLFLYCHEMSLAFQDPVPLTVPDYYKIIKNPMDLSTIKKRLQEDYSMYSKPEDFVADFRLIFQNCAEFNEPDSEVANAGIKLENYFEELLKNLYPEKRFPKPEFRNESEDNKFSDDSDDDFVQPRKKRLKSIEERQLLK
UniProt Q9NXH9: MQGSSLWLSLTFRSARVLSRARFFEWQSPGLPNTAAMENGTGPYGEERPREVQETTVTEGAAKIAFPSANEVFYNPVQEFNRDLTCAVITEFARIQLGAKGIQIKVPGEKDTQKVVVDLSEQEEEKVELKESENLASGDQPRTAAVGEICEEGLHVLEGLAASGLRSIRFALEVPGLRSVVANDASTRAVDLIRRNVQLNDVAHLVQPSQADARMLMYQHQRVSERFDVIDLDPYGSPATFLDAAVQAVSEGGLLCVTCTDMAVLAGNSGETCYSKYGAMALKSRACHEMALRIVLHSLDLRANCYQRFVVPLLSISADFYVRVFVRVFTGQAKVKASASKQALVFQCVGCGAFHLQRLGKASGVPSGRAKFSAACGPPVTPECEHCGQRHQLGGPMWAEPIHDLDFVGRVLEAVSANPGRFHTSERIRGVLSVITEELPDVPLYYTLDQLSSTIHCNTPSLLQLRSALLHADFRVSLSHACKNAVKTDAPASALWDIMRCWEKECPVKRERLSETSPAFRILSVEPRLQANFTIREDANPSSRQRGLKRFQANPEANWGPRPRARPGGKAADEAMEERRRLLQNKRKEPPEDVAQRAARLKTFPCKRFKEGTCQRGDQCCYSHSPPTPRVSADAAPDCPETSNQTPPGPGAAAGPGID
UniProt Q96DX7: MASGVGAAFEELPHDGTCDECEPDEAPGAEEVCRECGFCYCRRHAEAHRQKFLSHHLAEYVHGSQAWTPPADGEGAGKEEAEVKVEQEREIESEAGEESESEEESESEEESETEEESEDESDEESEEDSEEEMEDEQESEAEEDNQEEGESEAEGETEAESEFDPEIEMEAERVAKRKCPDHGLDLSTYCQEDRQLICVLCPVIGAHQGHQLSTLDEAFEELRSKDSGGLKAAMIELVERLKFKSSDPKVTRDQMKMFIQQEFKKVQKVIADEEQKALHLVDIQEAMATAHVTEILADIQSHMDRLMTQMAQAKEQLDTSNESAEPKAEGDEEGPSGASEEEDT
UniProt O75865, whole entry, looked up: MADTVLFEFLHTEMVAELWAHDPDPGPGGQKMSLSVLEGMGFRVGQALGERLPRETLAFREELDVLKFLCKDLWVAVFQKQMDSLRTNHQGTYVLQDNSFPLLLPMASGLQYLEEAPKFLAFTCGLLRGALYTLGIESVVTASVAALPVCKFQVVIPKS
UniProt Q99816: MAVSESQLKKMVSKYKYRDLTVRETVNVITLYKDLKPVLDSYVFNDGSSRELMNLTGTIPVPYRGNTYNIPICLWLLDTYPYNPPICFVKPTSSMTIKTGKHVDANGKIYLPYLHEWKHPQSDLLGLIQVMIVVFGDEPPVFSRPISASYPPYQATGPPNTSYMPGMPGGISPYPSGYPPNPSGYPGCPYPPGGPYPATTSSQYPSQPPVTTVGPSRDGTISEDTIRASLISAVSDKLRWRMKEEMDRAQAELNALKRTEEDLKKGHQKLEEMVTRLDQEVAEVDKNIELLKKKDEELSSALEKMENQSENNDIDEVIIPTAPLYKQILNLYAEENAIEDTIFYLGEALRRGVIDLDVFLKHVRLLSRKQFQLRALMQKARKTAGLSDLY
UniProt Q13630: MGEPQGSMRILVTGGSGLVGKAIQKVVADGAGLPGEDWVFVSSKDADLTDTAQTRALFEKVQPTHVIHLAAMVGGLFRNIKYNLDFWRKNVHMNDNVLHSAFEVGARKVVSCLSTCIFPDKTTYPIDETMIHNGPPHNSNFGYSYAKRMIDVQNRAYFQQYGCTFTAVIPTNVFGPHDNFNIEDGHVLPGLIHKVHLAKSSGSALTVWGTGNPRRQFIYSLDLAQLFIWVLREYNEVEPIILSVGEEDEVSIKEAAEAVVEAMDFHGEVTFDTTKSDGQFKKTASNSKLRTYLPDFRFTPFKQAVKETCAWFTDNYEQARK
UniProt Q15654: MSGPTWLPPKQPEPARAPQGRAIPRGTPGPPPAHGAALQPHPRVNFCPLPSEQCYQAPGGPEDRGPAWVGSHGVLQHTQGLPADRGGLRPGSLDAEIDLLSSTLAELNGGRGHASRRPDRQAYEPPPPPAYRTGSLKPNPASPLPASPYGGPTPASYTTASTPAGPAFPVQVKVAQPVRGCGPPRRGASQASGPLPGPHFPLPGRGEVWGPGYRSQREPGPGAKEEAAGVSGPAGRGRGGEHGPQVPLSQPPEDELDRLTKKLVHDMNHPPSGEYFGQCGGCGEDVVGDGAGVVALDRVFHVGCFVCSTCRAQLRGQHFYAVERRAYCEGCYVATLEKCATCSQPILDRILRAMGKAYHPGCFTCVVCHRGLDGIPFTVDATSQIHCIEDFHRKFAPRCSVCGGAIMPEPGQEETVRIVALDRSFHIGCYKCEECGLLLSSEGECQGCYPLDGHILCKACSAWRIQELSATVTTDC
UniProt Q9BSV6: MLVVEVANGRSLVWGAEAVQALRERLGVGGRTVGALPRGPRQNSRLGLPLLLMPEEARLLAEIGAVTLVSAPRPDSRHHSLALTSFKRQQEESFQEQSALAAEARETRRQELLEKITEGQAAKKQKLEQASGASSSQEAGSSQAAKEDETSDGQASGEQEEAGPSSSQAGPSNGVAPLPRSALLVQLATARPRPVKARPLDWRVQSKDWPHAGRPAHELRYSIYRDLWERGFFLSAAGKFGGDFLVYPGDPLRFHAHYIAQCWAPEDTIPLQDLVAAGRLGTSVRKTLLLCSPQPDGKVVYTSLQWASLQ
UniProt O43617, whole entry, looked up: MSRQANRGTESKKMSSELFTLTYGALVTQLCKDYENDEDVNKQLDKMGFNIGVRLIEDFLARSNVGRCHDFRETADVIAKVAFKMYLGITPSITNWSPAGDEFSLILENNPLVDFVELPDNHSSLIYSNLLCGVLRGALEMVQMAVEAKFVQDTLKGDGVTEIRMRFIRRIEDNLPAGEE
UniProt Q96Q05, whole entry, looked up: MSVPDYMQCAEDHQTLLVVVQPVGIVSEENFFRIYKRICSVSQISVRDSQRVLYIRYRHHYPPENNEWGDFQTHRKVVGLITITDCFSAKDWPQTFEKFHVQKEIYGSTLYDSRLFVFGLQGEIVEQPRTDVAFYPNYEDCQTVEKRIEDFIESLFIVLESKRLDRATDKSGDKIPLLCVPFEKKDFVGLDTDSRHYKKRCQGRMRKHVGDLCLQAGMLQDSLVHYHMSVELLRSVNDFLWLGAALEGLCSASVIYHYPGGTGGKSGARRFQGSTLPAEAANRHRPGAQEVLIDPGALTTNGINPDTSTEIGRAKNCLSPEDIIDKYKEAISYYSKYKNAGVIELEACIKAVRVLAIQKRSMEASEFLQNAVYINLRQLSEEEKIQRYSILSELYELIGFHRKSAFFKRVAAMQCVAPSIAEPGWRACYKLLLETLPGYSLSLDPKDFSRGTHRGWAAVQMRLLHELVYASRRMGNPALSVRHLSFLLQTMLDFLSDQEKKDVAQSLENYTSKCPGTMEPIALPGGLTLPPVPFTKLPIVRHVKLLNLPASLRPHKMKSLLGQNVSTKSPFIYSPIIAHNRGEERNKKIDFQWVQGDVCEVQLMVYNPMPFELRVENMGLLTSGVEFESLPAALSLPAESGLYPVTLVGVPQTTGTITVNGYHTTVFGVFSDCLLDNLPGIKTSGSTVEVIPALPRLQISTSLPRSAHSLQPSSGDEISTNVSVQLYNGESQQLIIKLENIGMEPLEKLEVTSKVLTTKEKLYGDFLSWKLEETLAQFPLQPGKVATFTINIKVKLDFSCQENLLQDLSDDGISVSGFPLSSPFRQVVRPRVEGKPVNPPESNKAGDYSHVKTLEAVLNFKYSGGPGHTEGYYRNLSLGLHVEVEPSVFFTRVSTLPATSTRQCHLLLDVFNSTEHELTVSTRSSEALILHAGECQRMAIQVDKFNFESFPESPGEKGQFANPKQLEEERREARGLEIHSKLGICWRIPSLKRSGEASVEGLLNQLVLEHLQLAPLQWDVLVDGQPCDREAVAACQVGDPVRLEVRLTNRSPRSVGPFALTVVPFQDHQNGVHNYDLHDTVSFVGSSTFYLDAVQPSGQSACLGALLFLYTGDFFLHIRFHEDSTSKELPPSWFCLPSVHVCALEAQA
UniProt O14545: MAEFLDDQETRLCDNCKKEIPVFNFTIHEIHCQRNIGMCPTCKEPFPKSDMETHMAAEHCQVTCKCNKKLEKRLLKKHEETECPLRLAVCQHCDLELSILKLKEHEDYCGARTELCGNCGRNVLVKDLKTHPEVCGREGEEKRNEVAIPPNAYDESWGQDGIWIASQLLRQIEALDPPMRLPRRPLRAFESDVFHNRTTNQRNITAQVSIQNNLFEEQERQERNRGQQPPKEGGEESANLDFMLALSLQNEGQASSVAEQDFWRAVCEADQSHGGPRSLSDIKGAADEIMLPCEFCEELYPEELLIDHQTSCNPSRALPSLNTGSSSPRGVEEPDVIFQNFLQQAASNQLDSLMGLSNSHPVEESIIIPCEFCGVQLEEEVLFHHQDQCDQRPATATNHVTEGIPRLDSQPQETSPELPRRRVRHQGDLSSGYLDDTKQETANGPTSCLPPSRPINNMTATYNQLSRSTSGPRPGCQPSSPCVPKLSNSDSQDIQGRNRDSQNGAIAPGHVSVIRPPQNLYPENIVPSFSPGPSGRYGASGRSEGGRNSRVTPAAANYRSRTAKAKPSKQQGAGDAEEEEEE

Compound: CC1=CC=C(C=C1)SC2=C3C=C(SC3=CN=C2)C(=O)N
Assay: log2 fold change, soluble protein after heating vs DMSO (PISA); higher = thermal stabilisation; K562 lysate, 10 uM; active = over 0.2 and 3.5 SD of the protein, either way, in both replicates (recomputed)
Procedure, shortened: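 A 30 min treatment with 10 μM compound was applied to crude K562 extract at 1 mg/mL protein in PBS pH 7.4 with 1 mM MgCl2. Heating for 3 min spanned 48°C-58°C, after which aliquots were pooled, adjusted to 0.5% NP-40 at 4°C and spun at 21,000xg for 90 min. TMTpro 16plex LC-MS/MS of the supernatant, with channel sums equalised, gave values recorded as log-two fold change in thermal stability against solvent controls, from duplicates.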

Target	log2 fold change
TRAP1 (UniProt Q12931)	inactive: 0.017
TTI1 (UniProt O43156)	inactive: 0.026
TRNT1 (UniProt Q96Q11)	inactive: 0.008
TSEN54 (UniProt Q7Z6J9)	inactive: -0.096
TSN (UniProt Q15631)	inactive: -0.003
TRMT2A (UniProt Q8IZ69)	inactive: 0.008
TTC33 (UniProt Q6PID6)	inactive: -0.057
TRMU (UniProt O75648)	inactive: 0.003
TSC22D1 (UniProt Q15714)	inactive: 0.008
TTC19 (UniProt Q6DKK2)	inactive: 0.015
TRIM11 (UniProt Q96F44)	inactive: 0.036
TRIP10 (UniProt Q15642)	inactive: 0
TRIM24 (UniProt O15164)	inactive: -0.067
TRIM28 (UniProt Q13263)	inactive: 0.003
TRMT1 (UniProt Q9NXH9)	inactive: -0.006
TRIM44 (UniProt Q96DX7)	inactive: 0.086
TRAPPC6A isoform 2 (UniProt O75865)	inactive: -0.062

Nothing new here: entries from further up.
Target	log2 fold change
TTC33 (UniProt Q6PID6)	inactive: -0.057
TRMU (UniProt O75648)	inactive: 0.003

Next part

Target	log2 fold change
TRIP10 isoform 2 (UniProt Q15642)	inactive: 0.045
TRIM32 (UniProt Q13049)	inactive: 0.047
TSG101 (UniProt Q99816)	inactive: -0.023
TSTA3 (UniProt Q13630)	inactive: -0.005
TRIP6 (UniProt Q15654)	inactive: -0.023
TTLL12 (UniProt Q14166)	inactive: 0.012
TRAPPC8 (UniProt Q9Y2L5)	inactive: 0.007
TRAF4 (UniProt Q9BUZ4)	inactive: 0.022
TSEN34 (UniProt Q9BSV6)	inactive: 0.058
TRAPPC3 (UniProt O43617)	inactive: 0.028
TRIM23 (UniProt P36406)	inactive: -0.022
TRAPPC9 isoform 2 (UniProt Q96Q05)	inactive: -0.001
TRUB1 (UniProt Q8WWH5)	inactive: 0.028
TRIP4 (UniProt Q15650)	inactive: 0.041
TRAFD1 (UniProt O14545)	inactive: -0.035
TRAPPC6B (UniProt Q86SZ2)	inactive: 0.011
